Results are given in words; binding and its absence hold for the method and conditions named. In cells and extracts the contact can be indirect.
Target: human STAT2, HA-tagged (HA-STAT2-Myc) (human) (UniProt P52630)
Test: co-IP; HEK293T cells transfected; lysate incubated with anti-HA Affinity Gel at 4°C overnight, immunoblot

Protein sequences, listed by entry. Tags and fused reporters are not part of them.
UniProt P52630: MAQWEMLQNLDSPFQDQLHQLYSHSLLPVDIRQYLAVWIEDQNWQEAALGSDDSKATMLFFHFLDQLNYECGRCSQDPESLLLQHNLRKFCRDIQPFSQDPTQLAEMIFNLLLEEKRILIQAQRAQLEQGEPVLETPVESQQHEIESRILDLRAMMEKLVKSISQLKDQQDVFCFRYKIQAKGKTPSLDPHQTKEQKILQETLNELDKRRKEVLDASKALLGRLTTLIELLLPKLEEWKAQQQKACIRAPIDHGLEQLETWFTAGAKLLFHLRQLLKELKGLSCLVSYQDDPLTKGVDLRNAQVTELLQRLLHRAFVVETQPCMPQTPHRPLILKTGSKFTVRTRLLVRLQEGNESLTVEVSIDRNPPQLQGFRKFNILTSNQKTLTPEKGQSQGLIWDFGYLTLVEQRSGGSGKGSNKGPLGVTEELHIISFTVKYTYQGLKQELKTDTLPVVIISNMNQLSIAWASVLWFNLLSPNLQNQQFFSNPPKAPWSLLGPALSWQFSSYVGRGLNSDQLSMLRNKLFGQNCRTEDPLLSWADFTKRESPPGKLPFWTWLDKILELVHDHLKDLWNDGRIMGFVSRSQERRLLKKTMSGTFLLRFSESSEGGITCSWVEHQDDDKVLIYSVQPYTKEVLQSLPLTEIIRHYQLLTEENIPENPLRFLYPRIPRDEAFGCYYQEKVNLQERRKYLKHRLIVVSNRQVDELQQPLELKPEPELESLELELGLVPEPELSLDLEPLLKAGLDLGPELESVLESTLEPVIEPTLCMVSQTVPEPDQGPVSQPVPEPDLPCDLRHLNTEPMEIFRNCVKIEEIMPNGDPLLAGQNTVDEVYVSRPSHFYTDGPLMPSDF
UniProt O00429: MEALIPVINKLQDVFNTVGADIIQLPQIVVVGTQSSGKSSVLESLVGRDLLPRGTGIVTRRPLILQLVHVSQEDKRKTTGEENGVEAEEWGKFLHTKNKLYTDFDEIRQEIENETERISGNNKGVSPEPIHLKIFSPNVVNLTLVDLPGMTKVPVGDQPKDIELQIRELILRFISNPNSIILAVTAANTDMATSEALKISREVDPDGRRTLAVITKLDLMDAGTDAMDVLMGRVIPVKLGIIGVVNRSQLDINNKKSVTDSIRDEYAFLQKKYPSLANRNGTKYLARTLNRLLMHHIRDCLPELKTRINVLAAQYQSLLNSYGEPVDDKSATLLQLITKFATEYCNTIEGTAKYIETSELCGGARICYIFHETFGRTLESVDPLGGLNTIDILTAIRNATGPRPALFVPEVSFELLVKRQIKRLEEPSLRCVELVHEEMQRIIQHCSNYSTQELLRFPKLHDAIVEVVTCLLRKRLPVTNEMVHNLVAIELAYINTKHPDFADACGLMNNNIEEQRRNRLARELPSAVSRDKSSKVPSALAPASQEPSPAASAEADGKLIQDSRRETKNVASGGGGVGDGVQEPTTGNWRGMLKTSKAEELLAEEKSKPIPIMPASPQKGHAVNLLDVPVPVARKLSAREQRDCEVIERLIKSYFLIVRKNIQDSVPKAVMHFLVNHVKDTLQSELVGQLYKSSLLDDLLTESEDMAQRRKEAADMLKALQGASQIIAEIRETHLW

## DRP1 (from UniProt O00429 1-736)
  binding: no binding
